Experimental data from the supplement of paper PMC11732987, “Enantioselective OTUD7B fragment discovery through chemoproteomics screening and high-throughput optimisation” (Communications Chemistry, 2025).
The list shows a part of the results. The data scatter; read single values as rough.

test system: HIVEP2 C2329; test: log2 mean competition ratio of IA-DTB cysteine labelling (DMSO/compound) (log2 ratio); higher = stronger cysteine engagement by compound; settings: 50 µM; treatment time: 4 h; cell line lysate: HEK293T
Method: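 IA-DTB competitive cysteine chemoproteomics in HEK293T RIPA lysate. Lysates were treated with compound 29 or 30 at 50 or 200 µM for 4 h, then IA-DTB (500 µM, 1 h), trypsin-digested, NeutrAvidin-enriched and analysed by diaPASEF. Competition ratio = intensity DMSO / intensity compound (n=4 treated, n=64 DMSO); binding: mean log2 CR ≥ 1 and p ≤ 0.05 plus QC filters. Target is the cysteine site.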

Row | SMILES | log2 mean competition ratio
1 | O=C(CCl)N[C@H]1CCCc2ccccc21 | 0.0117
2 | O=C(CCl)N[C@@H]1CCCc2ccccc21 | 0.0137

same assay, conditions: 200 µM; treatment time: 4 h; cell line lysate: HEK293T

Row | SMILES | log2 mean competition ratio
3 | O=C(CCl)N[C@H]1CCCc2ccccc21 | -0.141
4 | O=C(CCl)N[C@@H]1CCCc2ccccc21 | 0.0072
